Measurements as given in patent publication US20180256654A1, “USE OF LACTOBACILLUS PARACASEI STRAIN GMNL-653 TO PREPARE COMPOSITION FOR RESISTING BONE LOSS” (GENMONT BIOTECH INC., priority 2017, published 2018).

Key:
[1] = tested on: ovariectomized ICR female mice; experiment: Bone tissue analysis by micro computed tomography: trabecular bone volume ratio in the osteoporosis mouse model; type: in vivo; conditions: OVX mice, oral gavage for 28 days, right femur, mean±SD; OVX+H2O 30.9, sham control 42.12
Experimental: (§1) Preparation of dead bacteria: 1 μl Lactobacillus paracasei strain GMNL-653 and the Lactobacillus salivarius strain GMNL-678 frozen viral was inoculated to 1 ml of MRS broth, respectively, and aerobically incubated at 37° C. for 20 hours (first activation). The next day, adding 15 μl culture solution (first activation) into 1.5 ml of MRS broth, and then and aerobically incubated at 37° C. for 20 hours (secondary activation) Estimating the bacteria number by using OD 600 nm to adjust the bacteria concentration to 4.1×10^8 CFU/ml, and heat-killed bacteria was carried by autoclaving at 121° C. for 15 minutes. […]
(§2) Micro computed tomography (SkyScan 1076, Kontizh, Belgium, with resolution of 18 μm) was taken of the backbone of the right femur far from the end was taken, and the trabecular bone volume ratio (i.e. bone volume/tissue volume; BV/TV) was analyzed by a software. The analyzed position was selected to include the area of 100 pieces under the growth plate excluding cortical bone. […] The obtained data in the experiments were analyzed with two-way analysis of variance, and the T-test statistical analysis. […] After comparisons, the abovementioned groups were analyzed statistically and noted by different marks to represent the statistically significant differences (* represents p<0.05; ** represents p<0.01 See Table 3 and Table 4, showing the results of the experiment 1.

[2] = tested on: ovariectomized ICR female mice; experiment: Femur bone mineral density by micro computed tomography in the osteoporosis mouse model; type: in vivo; conditions: OVX mice, oral gavage for 28 days, right femur, mean±SD; OVX+H2O 0.344, sham control 0.502
Experimental: as §1, §2

`NCCCC(O)(P(=O)(O)O)P(=O)(O)O` [Alendronate] was tested, and the “Trabecular bone volume ratio (BV/TV, bone volume/tissue volume)” value [1] was 34.88% and the “Femur bone mineral density (BMD, excluding cortical bone)” value [2] was 0.426 g/mL.
